Here are results for one molecule from paper PMC3539393.

Protein sequences, listed by entry. Tags and fused reporters are not part of them.
UniProt P37238: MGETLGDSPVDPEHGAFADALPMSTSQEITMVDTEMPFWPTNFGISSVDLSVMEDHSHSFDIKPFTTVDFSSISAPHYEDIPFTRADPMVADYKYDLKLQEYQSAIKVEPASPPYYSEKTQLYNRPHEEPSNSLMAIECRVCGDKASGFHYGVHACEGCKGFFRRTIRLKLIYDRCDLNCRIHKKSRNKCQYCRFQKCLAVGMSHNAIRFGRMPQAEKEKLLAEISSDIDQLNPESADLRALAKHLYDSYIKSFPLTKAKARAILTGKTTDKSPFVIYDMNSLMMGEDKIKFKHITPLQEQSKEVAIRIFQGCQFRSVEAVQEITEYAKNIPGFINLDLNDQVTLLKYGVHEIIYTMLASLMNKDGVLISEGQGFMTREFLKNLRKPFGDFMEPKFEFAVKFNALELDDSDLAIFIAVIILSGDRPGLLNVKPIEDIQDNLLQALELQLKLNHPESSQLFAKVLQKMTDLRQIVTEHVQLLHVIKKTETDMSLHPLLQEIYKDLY

For this experiment, the target named is FLAG tagged PPARγ (UniProt P37238). Put plainly: co-IP; 500 μg whole-cell extracts of 293T cells co-transfected in pairs; IP with FLAG or HA antibodies at 4°C overnight, 0.3 M NaCl and 0.2% NP-40, protein A/G beads; washes 0.15 M NaCl and 0.1% NP-40; Western blot with FLAG and HA antibodies; without rosiglitazone. (A western blot detects proteins with antibodies after separation by electrophoresis.)

No constants are given. Whether binding was seen depends on the method and setting. In cells and extracts the contact can be indirect. Sequences can lack the tags named with a protein.

B1: HA tagged TBP (protein, UniProt P29037 1-316)
chain: MDQNNSLPPYAQGLASPQGAMTPGIPIFSPMMPYGTGLTPQPIQNTNSLSILEEQQRQQQQQQQQQQQQQAVATAAASVQQSTSQQPTQGASGQTPQLFHSQTLTTAPLPGTTPLYPSPMTPMTPITPATPASESSGIVPQLQNIVSTVNLGCKLDLKTIALRARNAEYNPKRFAAVIMRIREPRTTALIFSSGKMVCTGAKSEEQSRLAARKYARVVQKLGFPAKFLDFKIQNMVGSCDVKFPIRLEGLVLTHQQFSSYEPELFPGLIYRMIKPRIVLLIFVSGKVVLTGAKVRAEIYEAFENIYPILKGFRKTT
B1: the binding result is reported as “no binding”.
